Reference: the supplement of paper PMC12823440, “Inhibitors supercharge kinase turnover through native proteolytic circuits” (Nature, 2025)
The other results are listed elsewhere or left out. Hit calls seldom repeat between salt and free forms of one compound.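 Kinases were expressed as nanoluciferase fusions in K562 cells and luminescence was read every 4 h between 2 and 18 h as percent of control, DMSO set to 100% and a positive control to 0%. A time point counts as decreased when the signal drops significantly (2 sigma). The hit call is the authors' own, does not follow from the count of time points alone, and its rule is not shown.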

By UniProt entry, the sequences of proteins in these tests, tags left out. Where a name states a change or a piece, a line headed by the entry shows the natural chain unless it says otherwise.
UniProt O96013: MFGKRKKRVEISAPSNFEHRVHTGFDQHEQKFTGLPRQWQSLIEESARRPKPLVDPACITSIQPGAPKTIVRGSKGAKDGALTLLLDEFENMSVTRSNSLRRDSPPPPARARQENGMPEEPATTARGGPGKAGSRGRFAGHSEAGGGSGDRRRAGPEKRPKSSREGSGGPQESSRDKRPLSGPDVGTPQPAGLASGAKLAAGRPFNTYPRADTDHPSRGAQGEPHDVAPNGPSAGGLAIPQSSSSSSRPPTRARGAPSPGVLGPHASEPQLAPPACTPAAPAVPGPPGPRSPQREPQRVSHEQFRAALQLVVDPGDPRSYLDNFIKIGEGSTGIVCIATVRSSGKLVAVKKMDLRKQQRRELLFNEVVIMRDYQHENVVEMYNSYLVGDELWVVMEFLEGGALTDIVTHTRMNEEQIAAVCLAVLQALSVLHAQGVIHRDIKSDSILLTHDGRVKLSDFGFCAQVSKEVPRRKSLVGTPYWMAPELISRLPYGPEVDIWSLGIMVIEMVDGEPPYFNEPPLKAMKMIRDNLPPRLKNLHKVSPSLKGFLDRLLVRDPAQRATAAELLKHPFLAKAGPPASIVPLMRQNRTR
UniProt Q96KB5: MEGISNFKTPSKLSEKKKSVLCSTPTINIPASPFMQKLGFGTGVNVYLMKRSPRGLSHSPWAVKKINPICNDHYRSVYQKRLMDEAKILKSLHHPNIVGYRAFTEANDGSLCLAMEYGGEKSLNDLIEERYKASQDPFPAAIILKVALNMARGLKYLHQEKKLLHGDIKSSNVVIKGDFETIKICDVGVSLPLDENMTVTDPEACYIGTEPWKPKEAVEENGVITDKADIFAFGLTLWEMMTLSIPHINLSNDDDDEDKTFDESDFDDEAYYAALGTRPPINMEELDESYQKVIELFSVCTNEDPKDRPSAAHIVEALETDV
UniProt P09619, whole entry: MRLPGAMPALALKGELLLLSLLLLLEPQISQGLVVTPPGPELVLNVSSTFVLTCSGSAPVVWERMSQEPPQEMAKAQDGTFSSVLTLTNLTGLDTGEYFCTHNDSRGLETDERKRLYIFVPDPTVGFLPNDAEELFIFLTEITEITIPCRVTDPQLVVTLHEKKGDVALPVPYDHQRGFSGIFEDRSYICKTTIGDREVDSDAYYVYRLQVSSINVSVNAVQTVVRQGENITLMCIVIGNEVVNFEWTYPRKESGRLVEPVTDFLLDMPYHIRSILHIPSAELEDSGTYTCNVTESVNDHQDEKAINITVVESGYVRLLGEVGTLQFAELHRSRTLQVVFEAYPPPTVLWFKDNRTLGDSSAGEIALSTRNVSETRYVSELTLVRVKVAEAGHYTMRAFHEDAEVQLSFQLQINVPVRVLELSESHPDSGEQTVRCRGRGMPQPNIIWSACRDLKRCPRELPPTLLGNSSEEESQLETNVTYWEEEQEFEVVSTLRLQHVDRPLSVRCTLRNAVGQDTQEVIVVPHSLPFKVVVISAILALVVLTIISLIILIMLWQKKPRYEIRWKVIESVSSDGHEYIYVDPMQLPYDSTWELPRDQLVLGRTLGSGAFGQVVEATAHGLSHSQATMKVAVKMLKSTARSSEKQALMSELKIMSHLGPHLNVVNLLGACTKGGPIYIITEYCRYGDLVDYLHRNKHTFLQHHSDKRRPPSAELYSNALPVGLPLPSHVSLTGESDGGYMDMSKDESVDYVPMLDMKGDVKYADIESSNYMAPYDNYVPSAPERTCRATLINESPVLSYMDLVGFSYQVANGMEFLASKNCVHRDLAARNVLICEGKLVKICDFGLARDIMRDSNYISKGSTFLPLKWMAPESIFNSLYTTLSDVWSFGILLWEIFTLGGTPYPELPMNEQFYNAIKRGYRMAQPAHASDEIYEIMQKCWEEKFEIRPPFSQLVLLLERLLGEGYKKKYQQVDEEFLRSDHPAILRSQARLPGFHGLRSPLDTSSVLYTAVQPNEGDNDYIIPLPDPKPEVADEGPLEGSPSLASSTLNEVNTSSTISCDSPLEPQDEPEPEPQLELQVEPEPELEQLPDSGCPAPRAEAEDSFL
UniProt Q15118, whole entry, looked up: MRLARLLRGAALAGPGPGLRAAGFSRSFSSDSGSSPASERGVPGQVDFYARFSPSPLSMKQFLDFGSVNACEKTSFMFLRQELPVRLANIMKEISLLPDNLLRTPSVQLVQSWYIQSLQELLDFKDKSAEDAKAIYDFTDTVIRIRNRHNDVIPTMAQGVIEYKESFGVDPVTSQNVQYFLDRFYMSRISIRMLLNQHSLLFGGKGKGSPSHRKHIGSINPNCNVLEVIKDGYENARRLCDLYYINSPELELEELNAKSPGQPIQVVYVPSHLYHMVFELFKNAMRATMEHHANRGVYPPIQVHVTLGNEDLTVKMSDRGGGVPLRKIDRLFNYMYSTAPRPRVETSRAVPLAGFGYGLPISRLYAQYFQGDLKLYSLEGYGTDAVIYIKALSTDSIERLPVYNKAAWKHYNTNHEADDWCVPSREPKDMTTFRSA
UniProt O15530: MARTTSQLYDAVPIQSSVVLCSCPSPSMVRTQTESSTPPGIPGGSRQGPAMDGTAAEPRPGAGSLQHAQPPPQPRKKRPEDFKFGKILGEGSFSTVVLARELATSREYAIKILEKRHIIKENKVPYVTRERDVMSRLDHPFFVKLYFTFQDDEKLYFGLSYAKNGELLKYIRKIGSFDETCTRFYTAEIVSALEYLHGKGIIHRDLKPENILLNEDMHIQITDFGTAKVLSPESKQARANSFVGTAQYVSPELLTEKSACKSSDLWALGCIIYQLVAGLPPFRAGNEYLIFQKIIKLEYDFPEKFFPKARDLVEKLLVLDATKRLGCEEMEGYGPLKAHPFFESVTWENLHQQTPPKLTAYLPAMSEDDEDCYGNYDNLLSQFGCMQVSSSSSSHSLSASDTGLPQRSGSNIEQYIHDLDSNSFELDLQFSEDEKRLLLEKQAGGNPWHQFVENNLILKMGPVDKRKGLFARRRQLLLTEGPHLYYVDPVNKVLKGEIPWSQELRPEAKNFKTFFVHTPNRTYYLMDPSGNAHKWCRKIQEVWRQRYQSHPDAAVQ
UniProt P42356, whole entry, looked up: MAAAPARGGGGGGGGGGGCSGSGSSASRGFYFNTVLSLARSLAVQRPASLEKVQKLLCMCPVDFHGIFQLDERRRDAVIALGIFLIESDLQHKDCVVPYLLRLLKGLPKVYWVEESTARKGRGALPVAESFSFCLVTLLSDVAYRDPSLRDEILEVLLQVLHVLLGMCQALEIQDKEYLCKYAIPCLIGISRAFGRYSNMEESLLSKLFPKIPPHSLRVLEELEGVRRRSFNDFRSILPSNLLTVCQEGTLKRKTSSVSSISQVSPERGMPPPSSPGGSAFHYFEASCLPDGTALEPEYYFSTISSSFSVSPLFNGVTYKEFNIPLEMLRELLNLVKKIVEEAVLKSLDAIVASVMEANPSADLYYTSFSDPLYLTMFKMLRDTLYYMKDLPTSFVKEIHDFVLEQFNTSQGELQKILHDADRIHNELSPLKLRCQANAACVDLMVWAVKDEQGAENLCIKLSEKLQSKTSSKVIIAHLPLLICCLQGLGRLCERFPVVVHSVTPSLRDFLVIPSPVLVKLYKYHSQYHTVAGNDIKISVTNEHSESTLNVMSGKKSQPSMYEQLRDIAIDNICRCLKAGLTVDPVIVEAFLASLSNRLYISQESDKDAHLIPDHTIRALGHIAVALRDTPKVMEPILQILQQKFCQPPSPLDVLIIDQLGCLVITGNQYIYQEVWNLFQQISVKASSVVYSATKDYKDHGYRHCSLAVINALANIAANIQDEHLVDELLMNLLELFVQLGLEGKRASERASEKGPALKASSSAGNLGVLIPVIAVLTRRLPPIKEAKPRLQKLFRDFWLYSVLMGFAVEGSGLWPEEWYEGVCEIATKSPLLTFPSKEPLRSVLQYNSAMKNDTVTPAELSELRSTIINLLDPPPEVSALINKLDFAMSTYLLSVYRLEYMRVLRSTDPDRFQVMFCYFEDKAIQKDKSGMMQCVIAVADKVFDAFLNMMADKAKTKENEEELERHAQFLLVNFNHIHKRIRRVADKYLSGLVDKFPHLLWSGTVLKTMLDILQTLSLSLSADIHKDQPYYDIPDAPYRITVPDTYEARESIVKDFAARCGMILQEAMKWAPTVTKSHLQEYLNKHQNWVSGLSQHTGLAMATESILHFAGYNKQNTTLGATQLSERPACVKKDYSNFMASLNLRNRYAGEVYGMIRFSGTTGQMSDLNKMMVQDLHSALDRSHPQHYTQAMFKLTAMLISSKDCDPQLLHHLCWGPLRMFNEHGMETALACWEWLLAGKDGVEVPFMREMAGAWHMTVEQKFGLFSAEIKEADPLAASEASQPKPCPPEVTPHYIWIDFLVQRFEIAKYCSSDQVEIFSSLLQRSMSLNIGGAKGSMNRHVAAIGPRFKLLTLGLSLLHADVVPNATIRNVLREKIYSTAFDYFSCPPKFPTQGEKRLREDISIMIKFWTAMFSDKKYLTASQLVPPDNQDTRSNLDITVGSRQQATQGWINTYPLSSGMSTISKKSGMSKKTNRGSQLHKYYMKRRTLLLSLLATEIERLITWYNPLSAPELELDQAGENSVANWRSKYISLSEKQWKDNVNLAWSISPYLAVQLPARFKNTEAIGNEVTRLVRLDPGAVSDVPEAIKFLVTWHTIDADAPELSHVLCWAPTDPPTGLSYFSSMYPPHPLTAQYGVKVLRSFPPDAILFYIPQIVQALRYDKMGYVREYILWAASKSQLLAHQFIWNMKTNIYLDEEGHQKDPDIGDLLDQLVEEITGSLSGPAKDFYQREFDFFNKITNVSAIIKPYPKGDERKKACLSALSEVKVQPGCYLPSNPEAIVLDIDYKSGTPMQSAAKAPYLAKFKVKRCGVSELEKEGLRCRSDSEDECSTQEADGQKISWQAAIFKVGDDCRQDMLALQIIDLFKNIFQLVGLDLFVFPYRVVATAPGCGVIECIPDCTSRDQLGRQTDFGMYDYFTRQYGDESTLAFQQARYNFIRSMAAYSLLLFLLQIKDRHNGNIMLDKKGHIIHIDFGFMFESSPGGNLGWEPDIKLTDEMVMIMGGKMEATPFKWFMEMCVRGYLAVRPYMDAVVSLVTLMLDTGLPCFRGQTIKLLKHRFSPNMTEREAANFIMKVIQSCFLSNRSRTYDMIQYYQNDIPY
UniProt Q9UBF8: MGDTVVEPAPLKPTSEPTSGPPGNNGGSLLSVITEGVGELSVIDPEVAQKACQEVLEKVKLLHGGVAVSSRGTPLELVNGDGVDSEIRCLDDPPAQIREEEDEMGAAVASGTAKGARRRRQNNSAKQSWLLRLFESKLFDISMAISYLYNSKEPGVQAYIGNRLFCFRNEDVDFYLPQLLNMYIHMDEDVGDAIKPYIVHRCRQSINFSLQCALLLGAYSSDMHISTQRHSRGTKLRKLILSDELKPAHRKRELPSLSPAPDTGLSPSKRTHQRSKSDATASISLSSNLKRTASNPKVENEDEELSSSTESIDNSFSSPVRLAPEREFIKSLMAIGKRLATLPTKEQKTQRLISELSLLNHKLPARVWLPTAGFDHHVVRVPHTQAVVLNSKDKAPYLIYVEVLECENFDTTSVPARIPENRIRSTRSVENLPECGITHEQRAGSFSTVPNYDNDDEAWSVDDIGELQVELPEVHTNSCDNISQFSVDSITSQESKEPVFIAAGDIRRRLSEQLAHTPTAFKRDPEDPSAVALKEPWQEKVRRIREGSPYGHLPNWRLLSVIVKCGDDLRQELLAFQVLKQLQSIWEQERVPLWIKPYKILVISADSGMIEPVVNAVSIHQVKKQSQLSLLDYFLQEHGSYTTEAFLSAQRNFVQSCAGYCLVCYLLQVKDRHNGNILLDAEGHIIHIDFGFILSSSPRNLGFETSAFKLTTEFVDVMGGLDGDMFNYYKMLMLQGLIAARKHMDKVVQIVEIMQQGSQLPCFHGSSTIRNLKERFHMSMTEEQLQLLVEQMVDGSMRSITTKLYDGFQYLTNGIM
UniProt Q13131: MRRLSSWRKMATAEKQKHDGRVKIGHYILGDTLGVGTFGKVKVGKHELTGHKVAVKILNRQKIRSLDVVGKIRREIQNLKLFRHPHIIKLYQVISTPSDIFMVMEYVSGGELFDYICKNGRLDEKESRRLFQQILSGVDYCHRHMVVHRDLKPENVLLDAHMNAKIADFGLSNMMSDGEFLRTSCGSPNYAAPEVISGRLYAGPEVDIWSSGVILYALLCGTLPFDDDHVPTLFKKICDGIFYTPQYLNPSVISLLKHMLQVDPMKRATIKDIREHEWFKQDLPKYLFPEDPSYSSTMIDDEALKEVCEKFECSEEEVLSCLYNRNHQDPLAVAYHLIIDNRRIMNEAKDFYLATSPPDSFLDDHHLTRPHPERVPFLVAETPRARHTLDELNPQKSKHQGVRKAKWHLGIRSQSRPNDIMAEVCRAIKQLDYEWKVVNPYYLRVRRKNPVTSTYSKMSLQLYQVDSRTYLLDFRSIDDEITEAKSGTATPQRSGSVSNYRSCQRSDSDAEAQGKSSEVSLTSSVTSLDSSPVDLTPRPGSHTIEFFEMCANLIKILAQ

Legend:
Assay in all cases: number of time points (of 5) at which kinase-Nluc abundance scored as decreased, DMSO-normalised (count); higher = more persistent destabilization
Details in all cases: K562; 2-18 h
NTRK3 = NTRK3 (UniProt Q16288)
PAK4 = PAK4 (UniProt O96013)
PBK = PBK (UniProt Q96KB5)
PDGFRB = PDGFRB (UniProt P09619)
PDK1 = PDK1 (UniProt Q15118)
PDPK1 = PDPK1 (UniProt O15530)
PIK4CA = PIK4CA (UniProt P42356)
PIK4CB = PIK4CB (UniProt Q9UBF8)
PLK1 = PLK1 (UniProt P53350)
PRKAA1 = PRKAA1 (UniProt Q13131)

| Compound | number of time points (NTRK3) | number of time points (PAK4) | number of time points (PBK) | number of time points (PDGFRB) | number of time points (PDK1) | number of time points (PDPK1) | number of time points (PIK4CA) | number of time points (PIK4CB) | number of time points (PLK1) | number of time points (PRKAA1) |
| --- | --- | --- | --- | --- | --- | --- | --- | --- | --- | --- |
| CC(C)n1c(CO)nc2c(F)cc(-c3nc(Nc4ccc(CN5CCNCC5)cn4)ncc3F)cc21 (10 µM) | 3 | 0 | 0 | 3 | 0 | 2 | 3 | 3 | 1 | 3 |
| Cc1cc(N2CCOCC2)ccc1Nc1nc(NC2CCCCC2)c2[nH]cnc2n1 (10 µM) | 0 | 0 | 0 | 0 | 0 | 0 | 0 | 0 | 0 | 0 |
| C=CC(=O)N1CCC(c2ccc(C(N)=O)c(-c3ccc(Oc4ccccc4)cc3)n2)CC1 [Orelabrutinib] (2.5 µM) | 0 | 0 | 0 | 0 | 0 | 0 | 0 | 0 | 0 | 0 |
| O=C(Nc1ccccc1C(=O)NC1CCCCNC1=O)c1cc2ccccc2s1 (configuration not stated) (10 µM) | 0 | 0 | 0 | 0 | 0 | 0 | 0 | 0 | 0 | 0 |
| Cc1cccc(-c2nn3c(c2-c2ccnc4ccc(C(N)=O)cc24)CCC3)n1 [Galunisertib] (10 µM) | – | 0 | 0 | 0 | 0 | 0 | 0 | 0 | 0 | 0 |
| CCNC(=O)Nc1ccc(-c2nc3c(c(N4CCOC[C@@H]4C)n2)CCN(C2COC2)C3)cc1 (2.5 µM) | 0 | 0 | 0 | 0 | 0 | 1 | 0 | 0 | 0 | 1 |
| C[C@H](Nc1cc2c(-c3ccc4c(c3)OCO4)noc2cn1)c1ccccc1 (10 µM) | 0 | 0 | 0 | 0 | 0 | 0 | 0 | 0 | – | 0 |
| CC(=O)Nc1nc(C)c(-c2cc(C)c3c(c2)CN([C@@H](C)C2CC2)C3=O)s1 (10 µM) | 0 | 0 | 0 | 0 | 0 | 0 | 0 | 0 | 0 | 0 |
| COc1cc2nnc(C(N)=O)c(Nc3ccc(C)cc3F)c2cc1N1CCN(CCO)CC1 (2.5 µM) | 0 | 0 | 0 | 0 | 0 | 0 | 0 | 0 | 0 | 0 |
| Nc1nc(Nc2ccc3c(c2)CC[C@@H](N2CCCC2)CC3)nn1-c1cc2c(nn1)-c1ccccc1CCC2 [Bemcentinib] (2.5 µM) | 0 | 0 | 0 | 0 | 0 | 0 | 0 | 0 | 0 | 0 |
| Cn1cnc2c(F)c(Nc3ccc(Br)cc3F)c(C(=O)NOCCO)cc21 [Binimetinib] (10 µM) | 0 | 0 | 0 | 0 | 0 | 4 | 0 | 0 | 0 | 0 |
| CC(C)n1cnc2c(Nc3cccc(Cl)c3)nc(N[C@H]3CCCC[C@@H]3N)nc21 (2.5 µM) | 0 | 0 | 0 | 0 | 0 | 0 | 0 | 0 | 0 | 0 |
| CC1(C)C=Cc2c(ccc(C(=O)/C=C/c3ccc(O)cc3)c2O)O1 [4-Hydroxylonchocarpin] (10 µM) | 0 | 0 | 0 | 0 | 0 | 0 | 0 | 0 | 0 | 0 |
| CCc1c(C(=O)NNC(=O)[C@H](O)c2cc(F)cc(F)c2)ccc(O)c1C (10 µM) | 0 | 0 | 0 | 0 | 0 | 0 | 0 | 0 | 0 | 0 |
| COc1ccc2cc1Oc1ccc(cc1)C[C@H]1c3cc(c(OC)cc3CCN1C)Oc1c(O)c(OC)cc3c1[C@H](C2)N(C)CC3 [Fangchinoline] (2.5 µM) | 0 | 0 | 0 | 0 | 0 | 0 | 0 | 0 | 0 | 0 |
| COC(=O)N1CCN(C2CCC(Nc3nc(Nc4cnn(C)c4)nc4ccc(CC#N)nc34)CC2)CC1 (configuration not stated) (10 µM) | 0 | 0 | 0 | 0 | 0 | 0 | 0 | 0 | 0 | 0 |
| COCCOc1cnc2ccn([C@H](C)c3nnc4c(F)cc(-c5cnn(C)c5)cn34)c(=O)c2c1 (10 µM) | 0 | 0 | 0 | 0 | 0 | 0 | 0 | 0 | 0 | 0 |

| Compound | number of time points (NTRK3) | number of time points (PAK4) | number of time points (PBK) | number of time points (PDGFRB) | number of time points (PDK1) | number of time points (PDPK1) | number of time points (PIK4CA) | number of time points (PIK4CB) | number of time points (PLK1) | number of time points (PRKAA1) |
| --- | --- | --- | --- | --- | --- | --- | --- | --- | --- | --- |
| CO[C@@H]1[C@H](N(C)C(=O)c2ccccc2)C[C@H]2O[C@]1(C)n1c3ccccc3c3c4c(c5c6ccccc6n2c5c31)C(=O)NC4 [Midostaurin] (2.5 µM) | – | 0 | 0 | 0 | 0 | 0 | 0 | 0 | 0 | 0 |
| Cc1ccc(Nc2cc(N[C@@H]3CCCC[C@@H]3N)nnc2C(N)=O)nc1C (2 µM) | 0 | 0 | 0 | 0 | 0 | 0 | 0 | 0 | 0 | 0 |
| NC(=O)c1sc2c([N+](=O)[O-])cc(C(F)(F)F)cc2[n+]1[O-] [Cyclapolin 9] (10 µM) | 0 | 0 | 0 | 0 | 0 | 0 | 0 | 0 | – | 0 |
| CC1=CC(=O)C(C(C)C)=C/C1=N/OC(=O)c1ccccc1C [Poloxin] (2.5 µM) | 0 | 0 | 0 | 0 | 0 | 0 | 0 | 0 | – | 0 |
| N#Cc1cnc(Nc2cc(NC[C@H]3CNCCO3)c(C(F)(F)F)cn2)cn1 (10 µM) | 2 | 0 | 0 | 0 | 0 | 0 | 0 | 0 | 0 | 1 |
| CNc1cc2c(Nc3cccc(Br)c3)ncnc2cn1 (10 µM) | 0 | 0 | 0 | 0 | 0 | 0 | 0 | 0 | 0 | 0 |
| COc1cc2nc(-c3cc(F)ccc3O)nc(N[C@@H]3CNC[C@H]3C(C)(C)O)c2cc1OC (2.5 µM) | 0 | 0 | 0 | 0 | 0 | 0 | 0 | 0 | 0 | 0 |
| Nc1[nH]nc2nnc(-c3c(-c4ccccc4)nn4ccccc34)cc12 (10 µM) | 0 | 0 | 0 | 0 | 0 | 0 | 0 | 0 | 0 | 0 |
| Nc1ccc(Sc2nc3ccccc3s2)c(Cl)c1 [KRAS inhibitor-9] (10 µM) | 0 | 0 | 0 | 0 | 0 | 0 | 0 | 0 | 0 | 0 |
| CS(=O)(=O)c1cccc(CNc2nc(Nc3ccc4c(c3)CCC(=O)N4)ncc2C(F)(F)F)c1 (10 µM) | 0 | 0 | 0 | 0 | 0 | 0 | 0 | 0 | 0 | 0 |
| COc1cc2nccc(Nc3cccc(Oc4ccccc4)c3)c2cc1OC (2.5 µM) | 0 | 0 | 0 | 0 | 0 | 1 | 0 | 0 | 0 | 0 |
| N#Cc1cc(-c2ccnc(Nc3ccc(N4CCOCC4)cc3)n2)ccc1OC1CCOCC1 (10 µM) | 0 | 0 | 0 | 0 | 0 | 0 | 0 | 0 | 0 | 0 |
| Cc1ccc(NC(=O)N2CCN(c3nc(N)nc4sc(-c5cccnc5)nc34)CC2)cc1 [PI4KIII beta inhibitor 3] (10 µM) | 0 | 0 | 0 | 0 | 0 | 0 | 0 | – | 0 | 0 |
| Cc1cnc(Nc2ccc(F)cc2Cl)nc1-c1c[nH]c(C(=O)N[C@H](CO)c2cccc(Cl)c2)c1 (10 µM) | 0 | 0 | 0 | 0 | 0 | 0 | 0 | 0 | 0 | 0 |
| NC(=O)c1ccccc1Nc1ccnc(Nc2cccc(O)c2)n1 (10 µM) | 3 | 0 | 0 | 0 | 0 | 4 | 2 | 2 | – | 0 |
| CCCCNc1ncc(C(=O)NCc2ccc(-n3ccnc3)cc2)c(NC2CCC(O)CC2)n1 (configuration not stated) (10 µM) | 0 | 0 | 0 | 0 | 0 | 0 | 0 | 2 | 0 | 0 |
| CN1CCC(Nc2ccc(C(=O)Nc3cc(-c4ccc5c(c4)OCO5)[nH]n3)cc2)CC1 (10 µM) | – | 0 | 0 | 0 | 0 | 1 | 0 | 0 | 0 | 0 |

An excerpt of these results, tab-delimited.
Compound	number of time points (NTRK3)	number of time points (PAK4)	number of time points (PBK)	number of time points (PDGFRB)	number of time points (PDK1)	number of time points (PDPK1)	number of time points (PIK4CA)	number of time points (PIK4CB)	number of time points (PLK1)	number of time points (PRKAA1)
CCCCNc1ncc(C(=O)NCc2ccc(-n3ccnc3)cc2)c(NC2CCC(O)CC2)n1 (configuration not stated) (10 µM)	0	0	0	0	0	0	0	2	0	0
CN1CCC(Nc2ccc(C(=O)Nc3cc(-c4ccc5c(c4)OCO5)[nH]n3)cc2)CC1 (10 µM)	–	0	0	0	0	1	0	0	0	0
